No constants are given. Whether binding was seen depends on the method and setting. Binding seen in cells or lysates may run through a third protein. A yes stands for co-enrichment or nearness to the bait. Other partners may have been found.
Target: SEL1L (suppressor of lin-12-like), endogenous (human (endogenous in HEK293T)) (UniProt Q9UBV2)
Assay: affinity purification with mass spectrometry

The chains behind the UniProt entries cited, without tags or fusion partners. Residues count along the entry.
UniProt Q9UBV2, residues 22-794: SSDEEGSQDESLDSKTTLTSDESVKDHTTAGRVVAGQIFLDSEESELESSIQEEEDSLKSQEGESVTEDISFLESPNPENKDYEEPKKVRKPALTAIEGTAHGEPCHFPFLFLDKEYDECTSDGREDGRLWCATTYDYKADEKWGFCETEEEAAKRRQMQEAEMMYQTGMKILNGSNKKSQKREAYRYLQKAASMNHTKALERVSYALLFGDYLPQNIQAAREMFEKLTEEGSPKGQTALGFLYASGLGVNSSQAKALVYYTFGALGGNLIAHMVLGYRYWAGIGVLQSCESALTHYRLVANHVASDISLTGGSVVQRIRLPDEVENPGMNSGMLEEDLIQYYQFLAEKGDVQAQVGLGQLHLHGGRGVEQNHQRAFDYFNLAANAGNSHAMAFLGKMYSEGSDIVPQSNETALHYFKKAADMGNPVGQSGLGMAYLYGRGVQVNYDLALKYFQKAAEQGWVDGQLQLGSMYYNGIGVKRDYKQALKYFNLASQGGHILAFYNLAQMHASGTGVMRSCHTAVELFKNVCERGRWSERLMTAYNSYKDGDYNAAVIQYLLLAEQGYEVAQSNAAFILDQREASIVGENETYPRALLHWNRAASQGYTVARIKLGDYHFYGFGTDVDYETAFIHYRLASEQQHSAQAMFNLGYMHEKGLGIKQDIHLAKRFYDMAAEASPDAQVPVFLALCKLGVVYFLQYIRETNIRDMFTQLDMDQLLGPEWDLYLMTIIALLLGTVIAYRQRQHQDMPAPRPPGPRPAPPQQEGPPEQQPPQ

VCP (Valosin containing protein), endogenous (from UniProt P55072 1-806) (enzyme)
binding: binds
